{
  "source": "patent US20250073250A1",
  "about": "“Improved synthesis of lysine acetylsalicylate - Glycine particles” (AspiAir GmbH, priority 2022, published 2025)",
  "assay": "Stability in aqueous solution (salicylic acid content by HPLC)",
  "format": "physicochemical",
  "details": "1.0 g in 5.0 mL water, cold storage 5±3° C.",
  "method": "Due to its instability in water, LASAG is commonly used as a dry powder, and specifically as a dry powder for reconstitution; in other words, an aqueous solution thereof is not necessarily meant to be stored for extended periods of time but instead is prepared freshly prior to each use. Stability in aqueous solution is nonetheless an important feature for users, for instance, in order to know how long a prepared solution can still be used; a content of ≤1.5 wt.-% of the LASAG-degradant salicylic acid (SA) in a solution is typically considered acceptable. […] In between sample time points, the vials were kept closed.\nThe following time points were measured:\nFor the HPLC-analysis, an Agilent Zorbax SB-C18 column was used (4.6×250 mm, 5 μm) at 22° C. with isocratic elution over 40 minutes at an eluent flow rate of 1 mL/min. The eluent was an 80 mM ammonium acetate/acetonitrile solution (60:40) prepared by dissolving 4 g ammonium acetate in 600 mL HPLC-grade water, adjusting the pH to 2.0 using trifluoroacetic acid, then adding 400 mL acetonitrile and homogenising the mixture. The injected sample volume was 10 μL. A UV-detector was used at 237 nm to analyse the samples.",
  "note": "At least one compound was matched to its structure with a doubt left.",
  "data": [
    {"molecule": "CC(=O)Oc1ccccc1C(=O)O.NCC(=O)O.NCCCCC(N)C(=O)O", "note": "(racemic) [LASAG 2, lysine acetylsalicylate⋅glycine]", "values": [
      {"measurement": "time at which solution exceeds 1.5 wt.-% salicylic acid content", "value": "08:14 h"}
    ]}
  ]
}
